{"source": "patent US20030013690A1", "about": "“Increasing phosphorus uptake from the gut of dairy cows by supplementing 1alpha-hydroxylated vitamin D compounds” (priority 2001, published 2003)", "key": {"lactating dairy cows [1]": {"test_system": "lactating dairy cows", "test": "Dairy cow efficacy trial: milk yield and milk composition", "type": "in vivo", "excerpt": "(§1) Eight multiparous lactating dairy cows (about 150 days in milk at start of the experiment) were blocked into two groups according to milk yield. Cows in each block were assigned randomly to four different treatments. The experimental design was a 4×4 Latin Square. Each period was four weeks in length. The first three weeks were used as an adaptation period, and measurements were taken during the last week of each period.\n(§2) The four treatments were:\n(§3) 1) High P diet. Dietary P at 0.47% (DM basis)\n(§4) 2) Diet 1 plus 1-α-OHD3 (75 μg/cow/day)\n(§5) 3) Low P diet. Dietary P at 0.35% (DM basis)\n(§6) 4) Diet 3 plus 1-α-OHD3 (75 μg/cow/day).\nCows were weighed two days in a row before the trial started and two days in a row when it finished. Daily milk weights were recorded. All cows were injected with bovine somatotropin (Posilac®). Blood samples were collected on the last day of weeks 1, 2, and 3 of each period. During week 4, blood samples were obtained on each of the last three days. Blood was obtained 5 hours after feeding from the coccygeal vein or artery in a gel and clot co-activator vacutainer. Samples were centrifuged the next day to separate the serum. Inorganic phosphorus and calcium analyses were performed on serum samples by Marshfield Laboratories, Marshfield, Wis.\nDuring the last two days of each period, six urine samples were collected at 8 am, 4 pm, and 11 pm on the first day and 12 noon, 8 pm, and 6 am on the second day. Urine samples were then composited for phosphorus, calcium, and creatinine analysis. Creatinine was measured to enable an estimate of urine output. Milk samples were obtained during four days of each period. The milk sample was split; one-half was mixed with a preservative, and the other half was refrigerated without a preservative. The samples with preservative were analyzed for milk composition by Wisconsin Ag Source Milk Analysis Laboratory (Menomonie, Wis.), and the samples without preservative were composited according to milk yield and analyzed for mineral composition in the Soil and Plant Analysis Laboratory, Department of Soil Science, University of Wisconsin-Madison."}, "lactating dairy cows [2]": {"test_system": "lactating dairy cows", "test": "Dairy cow efficacy trial: feed intake, fecal P excretion, P utilization", "type": "in vivo", "excerpt": "as §1, §2, §3, §4, §5, §6\nThe diets (Table 1) were fed ad libitum as a total mixed ration once daily. The cows were housed in individual tie stalls. Daily feed offered and refused was recorded for individual cows. Feed refusals were restricted to 10% of intake on an as-fed basis. Daily samples of silage and refusals were composited weekly for chemical analysis. Samples of individual feed ingredients were collected once weekly. The dry matter content of feed ingredients was determined by oven drying at 60° C. for 48 hr. Diet formulations were adjusted weekly, if necessary, to account for changes in dry matter content of diet ingredients. All of the feed ingredients were analyzed for chemical composition. Alfalfa and corn silage were analyzed weekly for neutral detergent fiber (NDF), acid detergent fiber (ADF), and crude protein (CP). High moisture ear corn (HMEC), soybean meal (SBM), roasted soybean meal (RSB), and blood meal (BM) were composited every four weeks (one sample per period) and analyzed for CP.\nFeed DM digestibility was determined using Yb as an external marker. A Yb solution, prepared by dissolving 2.24 g of YbCl3 (1 g of Yb) in 30 ml of water was sprayed onto 500 g of alfalfa silage (DM basis). The Yb-marked alfalfa silage was mixed into the total mixed ration to give 40 mg of Yb/kg of dietary DM. The total mixed ration labeled with Yb was fed for nine days. During the last two days of Yb feeding (last two days of each period), eight fecal grab samples were collected from each cow at 7 am, 12 noon, 6 pm, and 11 pm on the first day and at 9 am, 3 pm, 9 pm, and 5 am on the second day. Fecal samples were dried at 60° C. for 72 h and ground through a 2-mm Wiley mill screen. Fecal samples were dry-ashed in duplicate (Combs and Satter, 1992). During the last four days of each period, feed refusals for each cow were collected and composited into one sample per cow per period. These samples were dry-ashed in the same way as feces, and analyzed for Yb. Concentrations of Yb (ppm) in feed, feed refusals, and fecal samples were determined by direct current plasma spectroscopy [(Combs and Satter, 1992); Spectra Metrics, Inc., subsidiary of Beckman Instruments, Inc., Andover, Mass.]. The DM digestibility (percentage) for individual cows was calculated as follows: DM digestibility (%)=(1-concentration of Yb in DM consumed/average concentration of Yb in each cow's fecal samples)100. Digestibility of dietary P in different treatments was calculated using P input-output data."}, "[3]": {"conditions": "treatment 2: high P diet (0.47% P) plus 75 μg/cow/day"}, "[4]": {"conditions": "treatment 4: low P diet (0.35% P) plus 75 μg/cow/day"}}, "data": [{"smiles": "C=C1/C(=C\\C=C2/CCC[C@]3(C)[C@@H]([C@H](C)CCCC(C)C)CC[C@@H]23)C[C@@H](O)C[C@@H]1O", "note": "[1-α-OHD3, 1α-hydroxyvitamin D3]", "values": [{"measurement": "Effect on milk lactose", "setting": "lactating dairy cows [1]; 75 μg/cow/day", "result": "increased slightly"}, {"measurement": "Effect on milk potassium", "setting": "lactating dairy cows [1]; 75 μg/cow/day", "result": "decreased"}, {"measurement": "Effect on milk protein", "setting": "lactating dairy cows [1]; 75 μg/cow/day", "result": "may have been decreased slightly"}, {"measurement": "Milk P", "setting": "lactating dairy cows [1]; [3]", "result": 38.2, "unit": "g/day"}, {"measurement": "Milk P (phosphorus)", "setting": "lactating dairy cows [1]; [3]", "result": 1034, "unit": "ppm"}, {"measurement": "Milk calcium", "setting": "lactating dairy cows [1]; [3]", "result": 1238, "unit": "ppm"}, {"measurement": "Milk lactose", "setting": "lactating dairy cows [1]; [3]", "result": 4.98, "unit": "%"}, {"measurement": "Milk magnesium", "setting": "lactating dairy cows [1]; [3]", "result": 108, "unit": "ppm"}, {"measurement": "Milk potassium", "setting": "lactating dairy cows [1]; [3]", "result": 1595, "unit": "ppm"}, {"measurement": "Milk protein", "setting": "lactating dairy cows [1]; [3]", "result": 3.28, "unit": "%"}, {"measurement": "Milkfat", "setting": "lactating dairy cows [1]; [3]", "result": 3.45, "unit": "%"}, {"measurement": "Milk P", "setting": "lactating dairy cows [1]; [4]", "result": 38.4, "unit": "g/day"}, {"measurement": "Milk P (phosphorus)", "setting": "lactating dairy cows [1]; [4]", "result": 1021, "unit": "ppm"}, {"measurement": "Milk calcium", "setting": "lactating dairy cows [1]; [4]", "result": 1248, "unit": "ppm"}, {"measurement": "Milk lactose", "setting": "lactating dairy cows [1]; [4]", "result": 4.93, "unit": "%"}, {"measurement": "Milk magnesium", "setting": "lactating dairy cows [1]; [4]", "result": 105, "unit": "ppm"}, {"measurement": "Milk potassium", "setting": "lactating dairy cows [1]; [4]", "result": 1559, "unit": "ppm"}, {"measurement": "Milk protein", "setting": "lactating dairy cows [1]; [4]", "result": 3.31, "unit": "%"}, {"measurement": "Milkfat", "setting": "lactating dairy cows [1]; [4]", "result": 3.54, "unit": "%"}, {"measurement": "Effect on feed consumption (DM intake)", "setting": "lactating dairy cows [2]; 75 μg daily in the cows' diets", "result": "not affected"}, {"measurement": "Dry matter intake", "setting": "lactating dairy cows [2]; [3]", "result": 23.8, "unit": "kg/day"}, {"measurement": "Fecal DM", "setting": "lactating dairy cows [2]; [3]", "result": 7.2, "unit": "kg/day"}, {"measurement": "Dry matter intake", "setting": "lactating dairy cows [2]; [4]", "result": 24.1, "unit": "kg/day"}, {"measurement": "Fecal DM", "setting": "lactating dairy cows [2]; [4]", "result": 7.2, "unit": "kg/day"}]}]}
